Experimental data as given in patent US8183416B2, “Heterocyclic amide derivatives useful as microbiocides” (Syngenta Crop Protection, Inc., priority 2005, dated 2012).
Read-outs that look alike come from different tables or passages of the source. Some entries share one result that the patent states for a list of compounds.

What was measured:
Type in all cases: in vivo
Septoria nodorum [1] = assay: B-7 Action against Septoria nodorum/wheat (Septoria leaf spot on wheat); details: wheat cv. Arina, spray 0.02% active ingredient, inoculated one day after application, assessed 11 days after inoculation
Alternaria solani = assay: B-9 Action against Alternaria solani/tomato (early blight on tomatoes); details: tomato cv. Roter Gnom, spray 0.02% active ingredient, inoculated two days after application, 3 days incubation
Septoria tritici = assay: B-17 Action against Septoria tritici/wheat (Septoria leaf spot on wheat); details: wheat cv. Riband, spray 0.02% active ingredient, inoculated one day after application, assessed 18 days after inoculation
Puccinia recondita [2] = assay: B-1 Action against Puccinia recondita/wheat (brownrust on wheat); details: wheat cv. Arina, spray 0.02% active ingredient, inoculated one day after application, assessed 10 days after inoculation
Fusarium culmorum = system: Fusarium culmorum
Rhizoctonia solani = assay: B-15 Action against Rhizoctonia solani/rice (sheath blight) (pouch test); details: rice cv. Koshihikari, 0.002% active ingredient, 10 days, brown lesions on the roots
Botrytis cinerea [3] = assay: B-6 Action against Botrytis cinerea/tomato (Botrytis on tomatoes); details: tomato cv. Roter Gnom, spray 0.02% active ingredient, inoculated two days after application, 4 days incubation
Erysiphe graminis [4] = assay: B-11 Systemic action against Erysiphe graminis/barley (pouch test); details: barley cv. Express, 0.002% active ingredient, inoculated one week after sowing, 6 days incubation
Venturia inaequalis = assay: B-3 Action against Venturia inaequalis/apple (scab on apple); details: apple seedlings cv. McIntosh, spray 0.02% active ingredient, inoculated one day after application
Botrytis cinerea [5] = assay: B-5 Action against Botrytis cinerea/grape (Botrytis on grapes); details: grape seedlings cv. Gutedel, spray 0.02% active ingredient, inoculated two days after application, 4 days incubation
Uncinula necator = assay: B-10 Action against Uncinula necator/grape (powdery mildew on grapes); details: grape seedlings cv. Gutedel, spray 0.02% active ingredient, inoculated one day after application, 7 days incubation
Septoria nodorum [6] = assay: B-16 Action against Septoria nodorum/wheat (Septoria leaf spot) (pouch test); details: wheat cv. Arina, 0.002% active ingredient, systemic, assessed 8 days after inoculation
Erysiphe graminis [7] = assay: B-4 Action against Erysiphe graminis/barley (powdery mildew on barley); details: barley cv. Regina, spray 0.02% active ingredient, inoculated one day after application, 6 days incubation
Gaeumannomyces graminis = assay: B-13 Action against Gaeumannomyces graminis/wheat (take-all) (pouch test); details: wheat cv. Orestis, 0.002% active ingredient, 14 days, degree of root browning
Puccinia recondita [8] = assay: B-14 Action against Puccinia recondita/wheat (brownrust) (pouch test); details: wheat cv. Arina, 0.002% active ingredient, systemic, assessed 10 days after inoculation
Podosphaera leucotricha = assay: B-2 Action against Podosphaera leucotricha/apple (powdery mildew on apple); details: apple seedlings cv. McIntosh, spray 0.02% active ingredient, inoculated one day after application, 12 days incubation
Helminthosporium teres = assay: B-8 Action against Helminthosporium teres/barley (net blotch on barley); details: barley cv. Regina, spray 0.02% active ingredient, inoculated two days after application, 4 days incubation

SMILES	disease incidence (Septoria nodorum [1]) [%]	disease incidence (Alternaria solani) [%]	disease incidence (Septoria tritici) [%]	infestation (Puccinia recondita [2]) [%]	disease incidence (Fusarium culmorum; in vivo) [%]	disease incidence (Rhizoctonia solani) [%]	disease incidence (Botrytis cinerea [3]) [%]	disease incidence (Erysiphe graminis [4]) [%]	infestation (Venturia inaequalis) [%]	disease incidence (Botrytis cinerea [5]) [%]	disease incidence (Uncinula necator) [%]	disease incidence (Septoria nodorum [6]) [%]	infestation (Erysiphe graminis [7]) [%]	disease incidence (Gaeumannomyces graminis) [%]	disease incidence (Puccinia recondita [8]) [%]	infestation (Podosphaera leucotricha) [%]	disease incidence (Helminthosporium teres) [%]	disease incidence (Fusarium culmorum; pouch test, wheat cv. Orestis, 0.002% active ingredient, 11 days, brown lesions on the roots) [%]
Cn1cc(C(=O)Nc2cccc3c2C2CCC3C2=C(Cl)Cl)c(C(F)(F)F)c1 (racemic) [Compound 1.01]	< 50	< 20	< 20	< 20	< 50	< 50	< 50	< 50	< 20	< 50	< 20	< 50	< 20	< 50	< 50	< 20	< 20	–
Cn1cc(C(=O)Nc2cccc3c2C2CCC3C2=C(F)F)c(C(F)(F)F)c1 (racemic) [Compound 1.11]	< 50	< 20	< 20	< 20	< 50	< 50	< 50	< 50	< 20	< 50	< 20	< 50	< 20	< 50	< 50	< 20	< 20	–
Cn1cc(C(=O)Nc2cccc3c2C2CCC3C2=C(Br)Br)c(C(F)(F)F)c1 (racemic) [Compound 1.21]	< 50	< 20	< 20	< 20	< 50	< 50	< 50	< 50	< 20	< 50	< 20	< 50	< 20	< 50	< 50	< 20	< 20	–
Cn1cc(C(=O)Nc2cccc3c2C2CCC3C2=C(Cl)Cl)c(C(F)(F)F)n1 (racemic) [Compound 12.01]	< 50	< 20	< 20	< 20	< 50	< 50	< 50	< 50	< 20	< 50	< 20	< 50	< 20	< 50	< 50	< 20	< 20	–
Cn1cc(C(=O)Nc2cccc3c2C2CCC3C2=C(F)F)c(C(F)(F)F)n1 (racemic) [Compound 12.11]	< 50	< 20	< 20	< 20	< 50	< 50	< 50	< 50	< 20	< 50	< 20	< 50	< 20	< 50	< 50	< 20	< 20	–
Cn1cc(C(=O)Nc2cccc3c2C2CCC3C2=C(Br)Br)c(C(F)(F)F)n1 (racemic) [Compound 12.21]	< 50	< 20	< 20	< 20	< 50	< 50	< 50	< 50	< 20	< 50	< 20	< 50	< 20	< 50	< 50	< 20	< 20	–
Cn1cc(C(=O)Nc2cccc3c2C2CCC3C2=C(Cl)Cl)c(C(F)F)n1 (racemic) [Compound 13.01]	< 50	< 20	< 20	< 20	< 50	< 50	< 50	< 50	< 20	< 50	< 20	< 50	< 20	< 50	< 50	< 20	< 20	–
Cn1cc(C(=O)Nc2cccc3c2C2CCC3C2=C(F)F)c(C(F)F)n1 (racemic) [Compound 13.11]	< 50	< 20	< 20	< 20	< 50	< 50	< 50	< 50	< 20	< 50	< 20	< 50	< 20	< 50	< 50	< 20	< 20	–
Cn1cc(C(=O)Nc2cccc3c2C2CCC3C2=C(Br)Br)c(C(F)F)n1 (racemic) [Compound 13.21]	< 50	< 20	< 20	< 20	< 50	< 50	< 50	< 50	< 20	< 50	< 20	< 50	< 20	< 50	< 50	< 20	< 20	–
Cc1nc(C(F)(F)F)c(C(=O)Nc2cccc3c2C2CCC3C2=C(F)F)s1 (racemic) [Compound 20.11]	< 50	< 20	< 20	< 20	< 50	< 50	< 50	< 50	< 20	< 50	< 20	< 50	< 20	< 50	< 50	< 20	< 20	–
Cc1nc(C(F)(F)F)c(C(=O)Nc2cccc3c2C2CCC3C2=C(Br)Br)s1 (racemic) [Compound 20.21]	< 50	< 20	< 20	< 20	< 50	< 50	< 50	< 50	< 20	< 50	< 20	< 50	< 20	< 50	< 50	< 20	< 20	–
Cc1nc(C(F)(F)F)c(C(=O)Nc2cccc3c2C2CCC3C2=C(Cl)Cl)s1 (stereo not drawn) [Compound 20.01, 2-Methyl-4-trifluoromethyl-thiazole-5-carboxylic acid (9-dichloromethylidene-benzonorbornene-5-yl)amide]	–	–	–	–	–	< 50	–	–	–	–	–	–	–	–	–	–	–	< 50
